No constants are given. Whether binding was seen depends on the method and setting. In cells and extracts the contact can be indirect. Here binding means that the protein was enriched with, or labelled near, the bait; the list need not be complete.
Columns and labels:
[1] = target: Flag-p38α wild type (UniProt Q16539 1-360); experiment: affinity purification with mass spectrometry; Flag-p38α wild type or R49/149K co-expressed with HA-PRMT1 in p38α KD K562 cells, AraC stimulated, anti-Flag immunoprecipitates fractionated by SDS-PAGE and analysed by LC-MS/MS; hits filtered by Ingenuity Pathway Analysis
[2] = target: Flag-p38α R49/149K mutant (UniProt Q16539 1-360, R49/149K | R49/149K); experiment: as above

Sequences of proteins named here, by UniProt entry; tags and fusion partners are left off. A change or cut given only in a name is not applied to a line headed by its entry. A line that says so, or that is headed by a name, gives the form on record, which may keep a tag or linker.
UniProt Q16539: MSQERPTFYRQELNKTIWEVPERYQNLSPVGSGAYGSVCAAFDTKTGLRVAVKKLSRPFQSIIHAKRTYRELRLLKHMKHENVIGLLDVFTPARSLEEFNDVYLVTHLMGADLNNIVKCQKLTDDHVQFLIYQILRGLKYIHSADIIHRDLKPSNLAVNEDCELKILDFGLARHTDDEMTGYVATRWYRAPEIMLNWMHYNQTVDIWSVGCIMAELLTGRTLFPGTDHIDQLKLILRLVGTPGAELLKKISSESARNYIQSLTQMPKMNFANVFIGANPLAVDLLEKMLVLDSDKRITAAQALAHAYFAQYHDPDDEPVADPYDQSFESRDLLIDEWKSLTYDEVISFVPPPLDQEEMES
Flag-p38α R49/149K mutant (Q16539, form named): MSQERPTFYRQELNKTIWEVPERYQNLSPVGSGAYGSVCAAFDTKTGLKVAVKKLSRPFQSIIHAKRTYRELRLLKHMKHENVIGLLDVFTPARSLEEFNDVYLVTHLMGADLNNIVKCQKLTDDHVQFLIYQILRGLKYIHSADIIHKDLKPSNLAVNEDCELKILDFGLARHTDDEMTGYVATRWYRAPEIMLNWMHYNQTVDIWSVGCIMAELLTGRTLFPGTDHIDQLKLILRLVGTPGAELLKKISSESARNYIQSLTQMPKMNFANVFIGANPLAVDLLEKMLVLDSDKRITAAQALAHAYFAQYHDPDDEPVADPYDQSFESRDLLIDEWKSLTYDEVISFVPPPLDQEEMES
UniProt Q16644: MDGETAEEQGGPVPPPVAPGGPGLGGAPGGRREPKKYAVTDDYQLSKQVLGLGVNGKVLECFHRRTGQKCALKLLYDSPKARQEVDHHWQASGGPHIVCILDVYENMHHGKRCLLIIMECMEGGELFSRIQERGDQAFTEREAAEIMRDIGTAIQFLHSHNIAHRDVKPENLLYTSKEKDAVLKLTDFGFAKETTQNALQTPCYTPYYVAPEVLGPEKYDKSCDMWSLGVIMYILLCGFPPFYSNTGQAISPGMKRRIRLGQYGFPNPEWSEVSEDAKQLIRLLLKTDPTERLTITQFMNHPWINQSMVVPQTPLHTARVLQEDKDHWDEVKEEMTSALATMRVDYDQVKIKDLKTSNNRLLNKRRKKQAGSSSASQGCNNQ

- binding [1]: binds
- binding [2]: binds
Substance: MAPK-activated protein kinase 3 (MAPKAPK3) (from UniProt Q16644 1-382) (enzyme)
